± gives the uncertainty stated by the source. Many entries were measured with a wide error.
Assay: self-splicing fitness, log relative to wild type (ln ratio); higher = more splicing; Tetrahymena group I intron in knt gene, E. coli kanamycin selection, DiMSum; sequences stand for … in CUCUCU…GGAGGGAAAAGUUAUCAGGCAUGCACCUGGUAGCUAGUCUUUAAACCAAUAGAUUGCAUCGGUUUAAAAGGCAAGACCGUCAAAUUGCGGGAAAGGGGUCAACAGCCGUUCAGUACCAAGUCUCAGGGGAAACUUUGAGAUGGCCUUGCAAAGGGUAUGGUAAUAAGCUGACGGACAUGGUCCUAACCACGCAGCCAAGUCCUAAGUCAACAGAUCUUCUGUUGAUAUGGAUGCAGUUCACAGACUAAAUGUCGGUCGGGGAAGAUGUAUUCUUCUCAUAAGAUAUAGUCGGACCUCUCCUUAAUGGGAGCUAGCGGAUGAAGUGAUGCAACACUGGAGCCGCUGGGAACUAAUUUGUAUGCGAAAGUAUAUUGAUUAGUUUUGGAGUACUCGUGGUCG
In short: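 Six replicate transformations of E. coli BL21(DE3) with a pET-22b(+) library were grown overnight at 37°C or 30°C. The library randomised all eight P1ex-region intron nucleotides, the intron lying in the knt kanamycin-resistance gene, and plates were LB agar with or without 25 μg/mL kanamycin plus 100 μg/mL carbenicillin, 50 μM IPTG and 0.2% rhamnose. Pooled colonies were amplicon-sequenced on an Illumina HiSeq 2500, and fitness is the DiMSum error-weighted combination of wild-type-normalised replicate fold changes, kanamycin versus none.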

Sequence	self-splicing fitness (ln) (30 °C)	self-splicing fitness (ln) (37 °C)
GUAAAGCAAUAUUACGCACG	-0.557 ± 0.067	-0.242 ± 0.093
AAAGAGCAAUAUUACGUCAA	-3.31 ± 0.18	-2.61 ± 0.19
CUUAAGCAAUAUUACGAGCU	–	-3.13 ± 0.74
UUAGAGCAAUAUUACGGGCC	-3.59 ± 0.75	-2.92 ± 0.74
GGAAAGCAAUAUUACGGAAC	–	-1.44 ± 0.56
CAUGAGCAAUAUUACGCUGC	-3.48 ± 1.1	-3.91 ± 1
CCGUAGCAAUAUUACGGUAC	–	-3.52 ± 0.51
GGCGAGCAAUAUUACGCCGC	-3.21 ± 0.76	-2.91 ± 0.62
CGUCAGCAAUAUUACGCGGA	-4.43 ± 0.72	–
ACAGAGCAAUAUUACGAUCU	-1.68 ± 0.22	-2.33 ± 0.56
UCGUAGCAAUAUUACGAAGA	–	-1.51 ± 0.51
UUGUAGCAAUAUUACGCUUU	-4.71 ± 0.51	–
CUCAAGCAAUAUUACGCUCG	-4.05 ± 0.51	–
UGACAGCAAUAUUACGUGAU	-3.05 ± 0.11	-0.351 ± 0.084
ACAUAGCAAUAUUACGUCUC	-4.39 ± 0.51	–
AUUGAGCAAUAUUACGAAGC	-5.27 ± 1	-1.44 ± 0.69
CCAGAGCAAUAUUACGACGA	-2.94 ± 0.25	-2.34 ± 0.3
CGGCAGCAAUAUUACGCUUC	-2.87 ± 1.1	–
CGGUAGCAAUAUUACGUGGU	-3.17 ± 0.21	-2.3 ± 0.21
AAUGAGCAAUAUUACGAUAC	-4 ± 0.33	-2.47 ± 0.61

Sequence	self-splicing fitness (ln) (30 °C)	self-splicing fitness (ln) (37 °C)
UACCAGCAAUAUUACGAUAG	-1.1 ± 0.067	0.0475 ± 0.097
UUGAAGCAAUAUUACGCAUC	–	-2.63 ± 0.62
AAGGAGCAAUAUUACGGUUA	–	-1.36 ± 0.63
ACGGAGCAAUAUUACGCGAU	-4.44 ± 0.72	–
GGCGAGCAAUAUUACGCGCU	-0.358 ± 0.57	–
GCUUAGCAAUAUUACGUUGU	-1.5 ± 0.066	-0.844 ± 0.093
CCGUAGCAAUAUUACGAUCU	-3.23 ± 0.53	–
UGAUAGCAAUAUUACGCCAC	-2.94 ± 0.64	–
UAAGAGCAAUAUUACGCUCC	-3.13 ± 1	-2.65 ± 0.54
GCAGAGCAAUAUUACGCCCG	-3.19 ± 0.63	-1.9 ± 0.6
UUGUAGCAAUAUUACGCUGU	-3.02 ± 0.35	-2.49 ± 0.27
GGGCAGCAAUAUUACGUCAC	-3.64 ± 0.6	–
UGGCAGCAAUAUUACGAAUC	–	-2.12 ± 0.57
CACGAGCAAUAUUACGUCAA	-2.34 ± 0.17	-2.13 ± 0.23
GUCGAGCAAUAUUACGACCC	-0.254 ± 0.58	0.0441 ± 0.72
GGCGAGCAAUAUUACGCCUA	-2.33 ± 0.73	–
AGAUAGCAAUAUUACGCUCC	-1.23 ± 0.56	–
CUGGAGCAAUAUUACGCCGG	-2.94 ± 0.58	-1.72 ± 0.57
CCGGAGCAAUAUUACGCCGU	–	-1.82 ± 0.52
GGGAAGCAAUAUUACGCGCU	-2.66 ± 0.28	-0.954 ± 0.27

Retrieved one by one from the list above (3):
Sequence	self-splicing fitness (ln) (30 °C)	self-splicing fitness (ln) (37 °C)
ACAUAGCAAUAUUACGUCUC	-4.39 ± 0.51	–
GGAAAGCAAUAUUACGGAAC	–	-1.44 ± 0.56
CGGCAGCAAUAUUACGCUUC	-2.87 ± 1.1	–

(next part)

Sequence	self-splicing fitness (ln) (30 °C)	self-splicing fitness (ln) (37 °C)
CACGAGCAAUAUUACGCGAC	-3.6 ± 0.52	–
CGUGAGCAAUAUUACGGGAA	-3.47 ± 1	–
UGAGAGCAAUAUUACGAAUC	-3.87 ± 0.74	-2.67 ± 1.1
AUAUAGCAAUAUUACGAGGG	–	-1.88 ± 1.2
AUUGAGCAAUAUUACGCACG	–	-2.39 ± 1.1
ACUGAGCAAUAUUACGCCAG	-2.93 ± 0.49	-2.78 ± 0.47
UCGGAGCAAUAUUACGGCAG	-3.96 ± 1	-1.72 ± 0.66
GGCAAGCAAUAUUACGGCAG	-2.32 ± 0.14	-1.15 ± 0.15
CAUGAGCAAUAUUACGACAA	-3.15 ± 0.61	–
UUUGAGCAAUAUUACGAGCC	-1.72 ± 0.73	–
CUUUAGCAAUAUUACGGCCU	–	-2.54 ± 1.1
UUCGAGCAAUAUUACGCAGC	-4.03 ± 0.53	-3.61 ± 1
CGAGAGCAAUAUUACGACCA	–	-1.12 ± 0.54
CCGAAGCAAUAUUACGAGAC	-5.09 ± 1	–
CUCCAGCAAUAUUACGACCU	–	-3.23 ± 0.73
AGAGAGCAAUAUUACGGGUC	-3.72 ± 0.6	–
GAGGAGCAAUAUUACGUUUC	–	-1.98 ± 1.1
UCGAAGCAAUAUUACGUACC	-3.03 ± 0.77	-3.34 ± 0.76
UGUGAGCAAUAUUACGUGUC	-4.09 ± 1	–
